Test results taken from the supplement of paper PMC10373366.
Counter-ions that a name gives are not always drawn. This is one part of the list. Single values are uncertain, as repeats are few or missing.

Key:
A2780 = test: cell growth inhibition ratio vs untreated control (CCK8); higher = stronger inhibition of cell viability; settings: 10 µM; 48 h
Method: (§1)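 Natural product library (Topscience) screened at 10 µM final concentration for 48 h on ovarian cancer A2780 cells and patient-derived ovarian cancer cells (PDC) in 96-well plates; viability read by CCK8 and reported as inhibition ratio (%) relative to untreated control. Single-dose primary screen.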

[1] = tested on: patient-derived ovarian cancer cells (PDC); test: as above; settings: 10 µM; 48 h
Method: as §1

SMILES	cell growth inhibition ratio (A2780) [%]	cell growth inhibition ratio [1] [%]
O=C1C(=C(O)C=Cc2ccc(O)cc2)C(O)=C([C@@H]2O[C@H](CO)[C@@H](O)[C@H](O)[C@H]2O)C(=O)C1(O)[C@@H]1O[C@H](CO)[C@@H](O)[C@H](O)[C@H]1O (stereo not given in full) [Hydroxysafflor yellow A]	11.1	-0.441
C[C@@H]1O[C@@H](O[C@H]2[C@H](O[C@H]3CC[C@@]4(C)[C@@H](CC[C@]5(C)[C@@H]4CC=C4[C@@H]6CC(C)(C)CC[C@]6(C(=O)O)CC[C@]45C)[C@]3(C)CO)OC[C@H](O)[C@@H]2O)[C@H](O)[C@H](O)[C@H]1O [Alpha-Hederin]	22.1	40.3
COC(=O)c1ccc(O)c(OC)c1 [Methyl Vanillate]	-0.832	16.9
CC1(C)CC[C@]2(C(=O)O)CC[C@]3(C)[C@H](C(=O)C=C4[C@@]5(C)C=C(C#N)C(=O)C(C)(C)[C@@H]5CC[C@]43C)[C@@H]2C1 [CDDO(Bardoxolone)]	92.4	85.5
COc1ccc(-c2cc(=O)c3c(O)c(OC)c(O)cc3o2)cc1OC [Eupatilin]	22.6	0.387
C=C(C)[C@H]1CC=C(C)CC1 [(R)-(+)-Limonene]	12	18.2
C[N+](C)(C)CC(=O)O [Betaine]	12.9	5.95
CC(=O)O[C@]1(C(C)=O)CC[C@H]2[C@@H]3C[C@H](C)C4=CC(=O)CC[C@]4(C)[C@H]3CC[C@@]21C [Farlutin]	27.4	20.3
O=C1OC(=O)[C@H]2[C@@H]1[C@@H]1CC[C@H]2O1 [Norcantharidin]	0.043	6.21
CNC1CCCN(c2c(F)cc3c(=O)c(C(=O)O)cn(C4CC4)c3c2OC)C1 (stereo not given) [Balofloxacin]	9.4	0.53
C/C(=C\C(=O)OCCCCCCCCC(=O)O)C[C@@H]1OC[C@H](C[C@@H]2O[C@H]2[C@@H](C)[C@H](C)O)[C@@H](O)[C@H]1O [Mupirocin]	-7.27	-21.4
Nc1ncnc2c1ncn2[C@@H]1O[C@H](COP(=O)(O)OP(=O)(O)O)[C@@H](O)[C@H]1O	25.9	-3.38
O=C1C[C@@H](c2ccccc2)Oc2cc(O)cc(O)c21 [Pinocembrin]	25.9	5.32
CC(=O)c1ccc(O)c(C(=O)O)c1 [5-Acetylsalicylic acid]	14	-12.7
C[C@@H]1O[C@@H](OC[C@H]2O[C@@H](OCCc3ccc(O)c(O)c3)[C@H](O)[C@@H](O)[C@@H]2OC(=O)/C=C/c2ccc(O)c(O)c2)[C@H](O)[C@H](O)[C@H]1O [Forsythoside A]	20.1	-13.3
COc1ccc(C[C@H]2COC(=O)[C@@H]2Cc2ccc(O[C@@H]3O[C@H](CO)[C@@H](O)[C@H](O)[C@H]3O)c(OC)c2)cc1OC [Arctiin]	40.3	-9.82
OCc1c[nH]c2ccccc12 [Indole-3-carbinol]	3.59	-4.15
COc1cc2c(cc1OC)-c1cc3ccc(OC)c(OC)c3c[n+]1CC2 [Palmatine chloride]	-33	-3.49
COc1ccc(C(C)=O)c(O)c1 [Paeonol]	-4.3	4.31
Cc1cc(O)c([C@@H]2c3c(O)cc(O)cc3O[C@H](c3ccc(O)c(O)c3)[C@H]2O)c2c1C[C@@](C)(O)[C@@H](c1ccc(O)c(O)c1)O2 [Grape Seed Extract]	68.6	69.9

SMILES	cell growth inhibition ratio (A2780) [%]	cell growth inhibition ratio [1] [%]
O=c1cc(-c2ccccc2)oc2cc(O)c(O)c(O)c12 [Baicalein]	41	-3.96
CCCCCCCCCCCCCCCC(=O)O [Palmitic acid]	12.5	0.93
O=c1c(O[C@@H]2O[C@H](CO)[C@H](O)[C@H](O)[C@H]2O)c(-c2ccc(O)c(O)c2)oc2cc(O)cc(O)c12 [Hyperoside]	-1.4	-0.488
COc1cc(O)c(C(C)=O)c(OC)c1 [Xanthoxyline]	-7.77	-11.2
Oc1ccc(/C=C/c2cc(O)cc(O)c2)cc1 [Resveratrol]	39.4	15.2
C/C=C1\[C@H]2C=C(C)C[C@]1(N)c1ccc(=O)[nH]c1C2 [(-)-Huperzine A (HupA)]	-0.716	-5.91
CC1(C)CCC[C@]2(C)[C@H]3CC(=O)O[C@]3(C)CC[C@@H]12 [Sclareolide]	2.75	-13.6
OC[C@@H](O)[C@H](O)[C@H](O)[C@@H](O)CO [Dulcitol]	7.15	8.79
O=C(O)c1cccnc1 [Nicotinic acid]	7.43	-9.64
Oc1cc2c(cc1O)[C@@H]1c3ccc(O)c(O)c3OC[C@]1(O)C2 [Hematoxylin]	-26.9	-9.41
Cc1cc(O)cc(O[C@@H]2O[C@H](CO)[C@@H](O)[C@H](O)[C@H]2O)c1 [Orcinol glucoside]	23.5	8.13
COc1cc(O)c2c(c1)C(=O)c1cc(C)cc(O)c1C2=O [Rheochrysidin]	-0.43	-25
N[C@@H](C=O)[C@@H](O)[C@H](O)[C@H](O)CO [Glucosamine sulfate]	91.6	67.2
OC[C@H]1O[C@H](O[C@]2(CCl)O[C@H](CCl)[C@@H](O)[C@@H]2O)[C@H](O)[C@@H](O)[C@H]1Cl [Sucralose]	8.36	-13.1
COc1cc(/C=C/C(=O)OCC[N+](C)(C)C)cc(OC)c1O [Sinapine thiocyanate]	-0.334	-7.67
CC(C)=CCC[C@@](C)(O)[C@H]1CC[C@]2(C)[C@@H]1[C@H](O)C[C@@H]1[C@@]3(C)CC[C@H](O[C@@H]4O[C@H](CO)[C@@H](O)[C@H](O)[C@H]4O[C@@H]4O[C@H](CO)[C@@H](O)[C@H](O)[C@H]4O)C(C)(C)[C@@H]3CC[C@]12C [20(R)-Propanaxadiol]	12.3	-20.5
OCC1OC(OC2C(CO)OC(O)C(O)C2O)C(O)C(O)C1O [D-Cellobiose]	-0.523	-9.81
COC1=CC(=O)C[C@@H](C)[C@]12Oc1c(Cl)c(OC)cc(OC)c1C2=O [Griseofulvin]	72.9	56
C=CC(C)(C)c1cc(/C=C/C(=O)c2ccc(O)cc2)c(OC)cc1O [Licochalcone A]	9.6	-18.3
CC(C)=CCC/C(C)=C/C=O [Citral]	4.4	5.45

SMILES	cell growth inhibition ratio (A2780) [%]	cell growth inhibition ratio [1] [%]
CN1CC(=O)NC1=N [Creatinine]	-14.8	5.37
Cc1cccc(C)c1NC(=O)c1ccccc1C(=O)O [Ftaxilide]	0.849	-13
C/C(=C\CO)CCC[C@H](C)CCC[C@H](C)CCCC(C)C	14.5	10.2
CC1(C)[C@@H](O)CC[C@]2(C)[C@H]3C(=O)C=C4[C@H]5C[C@@](C)(C(=O)O)CC[C@]5(C)CC[C@@]4(C)[C@]3(C)CC[C@@H]12 [Glycyrrhetinic acid(Enoxolone)]	6.62	-13.9
COc1ccc(-c2oc3c(CC=C(C)C)c(O)cc(O)c3c(=O)c2O[C@@H]2O[C@@H](C)[C@H](O)[C@@H](O)[C@H]2O)cc1 [Baohuoside I]	46.1	9.4
Nc1ccccc1C(=O)CC(N)C(=O)O (stereo not given) [Kynurenine]	1.58	-7.19
C[n+]1cc2c3c(ccc2c2ccc4cc5c(cc4c21)OCO5)OCO3 [Sanguinarine chloride]	90.9	89.9
COc1cc(C=CC(=O)O)cc(OC)c1O [Sinapinic Acid]	4.1	-5.49
C[C@@H]1O[C@@H](OC[C@H]2O[C@@H](Oc3c(-c4ccc(O)c(O)c4)oc4cc(O)cc(O)c4c3=O)[C@H](O)[C@@H](O)[C@@H]2O)[C@H](O)[C@H](O)[C@H]1O [Rutin]	6.67	-1.4
Nc1nc(=O)c2nc(CNc3ccc(C(=O)N[C@@H](CCC(=O)O)C(=O)O)cc3)cnc2[nH]1 [Folic acid]	6.32	-1.05
C[C@@H]1CC[C@@]2(OC1)O[C@H]1C[C@H]3[C@@H]4CC=C5C[C@@H](O[C@@H]6O[C@H](CO)[C@@H](O)[C@H](O)[C@H]6O)CC[C@]5(C)[C@H]4CC[C@]3(C)[C@H]1[C@@H]2C [Diosgenin glucoside]	49.3	30.3
CC[C@@]1(O)C(=O)OCc2c1cc1n(c2=O)Cc2cc3c(CN(C)C)c(O)ccc3nc2-1 [Topotecan hydrochloride]	81.8	76.8
CCCCCCCCC[C@H](O)CC(=O)CCc1ccc(O)c(OC)c1 [10-Gingerol]	22.4	-11.9
O=Cc1ccc(CO)o1 [5-Hydroxymethyl-2-furaldehyde]	4.02	-2.69
COC(=O)C1=CO[C@@H](O[C@@H]2O[C@H](CO)[C@@H](O)[C@H](O)[C@H]2O)[C@H]2[C@@H]1C(=O)C[C@@H]2C	5.6	-8.15
O=C(O)CCCCC1CCSS1 (stereo not given) [Alphalipoic acid]	1.45	6.9
O=c1c2cc(O)c(O)cc2oc2cc(O)c([C@@H]3O[C@H](CO)[C@@H](O)[C@H](O)[C@H]3O)c(O)c12 [Mangiferin]	8.79	-6.79
CN[C@@H]1[C@@H](O[C@H]2O[C@H](CO)[C@@H](N)[C@H](O)[C@H]2O)OC2C[C@@H](N)[C@@H](O[C@H]3[C@H](O)[C@@H](O)[C@H](N)C[C@@H]3N)OC2[C@@H]1O (stereo not given in full) [Apramycin sulfate]	3.88	-1.17
C[C@@H]1CC[C@]2(C(=O)O[C@@H]3O[C@H](CO)[C@@H](O)[C@H](O)[C@H]3O)CC[C@]3(C)C(=CC[C@@H]4[C@@]5(C)CC[C@H](O[C@@H]6OC[C@H](O)[C@H](O)[C@H]6O)C(C)(C)[C@@H]5CC[C@]43C)[C@@H]2[C@]1(C)O	11.7	-17.3
CC(C)[C@@H](C)/C=C/[C@@H](C)[C@H]1CC[C@H]2C3=CC=C4C[C@@H](O)CC[C@]4(C)[C@H]3CC[C@]12C [Ergosterol]	4.39	3.83

Ten entries from above in a different format.

| SMILES | cell growth inhibition ratio (A2780) [%] | cell growth inhibition ratio [1] [%] |
| --- | --- | --- |
| COc1cc(C=CC(=O)O)cc(OC)c1O [Sinapinic Acid] | 4.1 | -5.49 |
| C[C@@H]1O[C@@H](OC[C@H]2O[C@@H](Oc3c(-c4ccc(O)c(O)c4)oc4cc(O)cc(O)c4c3=O)[C@H](O)[C@@H](O)[C@@H]2O)[C@H](O)[C@H](O)[C@H]1O [Rutin] | 6.67 | -1.4 |
| Nc1nc(=O)c2nc(CNc3ccc(C(=O)N[C@@H](CCC(=O)O)C(=O)O)cc3)cnc2[nH]1 [Folic acid] | 6.32 | -1.05 |
| C[C@@H]1CC[C@@]2(OC1)O[C@H]1C[C@H]3[C@@H]4CC=C5C[C@@H](O[C@@H]6O[C@H](CO)[C@@H](O)[C@H](O)[C@H]6O)CC[C@]5(C)[C@H]4CC[C@]3(C)[C@H]1[C@@H]2C [Diosgenin glucoside] | 49.3 | 30.3 |
| CC[C@@]1(O)C(=O)OCc2c1cc1n(c2=O)Cc2cc3c(CN(C)C)c(O)ccc3nc2-1 [Topotecan hydrochloride] | 81.8 | 76.8 |
| CCCCCCCCC[C@H](O)CC(=O)CCc1ccc(O)c(OC)c1 [10-Gingerol] | 22.4 | -11.9 |
| O=Cc1ccc(CO)o1 [5-Hydroxymethyl-2-furaldehyde] | 4.02 | -2.69 |
| COC(=O)C1=CO[C@@H](O[C@@H]2O[C@H](CO)[C@@H](O)[C@H](O)[C@H]2O)[C@H]2[C@@H]1C(=O)C[C@@H]2C | 5.6 | -8.15 |
| O=C(O)CCCCC1CCSS1 (stereo not given) [Alphalipoic acid] | 1.45 | 6.9 |
| O=c1c2cc(O)c(O)cc2oc2cc(O)c([C@@H]3O[C@H](CO)[C@@H](O)[C@H](O)[C@H]3O)c(O)c12 [Mangiferin] | 8.79 | -6.79 |
